This assay deals with T1, Flag-tagged full-length wild-type PMK-3 (C. elegans) (UniProt O44514).
T1 sequence: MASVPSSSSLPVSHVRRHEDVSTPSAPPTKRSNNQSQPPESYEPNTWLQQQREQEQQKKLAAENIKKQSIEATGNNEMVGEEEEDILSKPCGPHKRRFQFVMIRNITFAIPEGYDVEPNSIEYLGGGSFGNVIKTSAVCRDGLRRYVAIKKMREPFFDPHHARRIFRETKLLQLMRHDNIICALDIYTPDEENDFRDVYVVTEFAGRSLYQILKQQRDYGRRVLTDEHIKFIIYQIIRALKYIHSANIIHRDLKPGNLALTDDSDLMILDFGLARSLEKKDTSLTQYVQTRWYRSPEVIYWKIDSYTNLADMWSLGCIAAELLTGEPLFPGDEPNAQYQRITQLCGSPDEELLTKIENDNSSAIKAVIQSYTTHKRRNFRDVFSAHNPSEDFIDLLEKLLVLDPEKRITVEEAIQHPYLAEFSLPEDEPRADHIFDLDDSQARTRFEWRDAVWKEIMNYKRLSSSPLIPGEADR
Kind of assay: co-IP; Myc-tagged IRE-1 cytoplasmic region and Flag-PMK-3 co-transfected into HEK293T; lysate supernatant incubated with anti-FLAG M2 affinity gel beads at 4°C overnight, washed three times, immunoblot. (A western blot detects proteins with antibodies after separation by electrophoresis.)

Results are given in words; binding and its absence hold for the method and conditions named. In cells and extracts the contact can be indirect. Some binding calls cover weakened binding; strength is not graded here. Where a sequence is shown, tags or fusion partners need not be part of it.

B1: Myc-tagged cytoplasmic region of IRE-1 (domain or fragment, UniProt Q09499 456-967)
chain: QCGRQWDQQKSTSRMDSFEIVNNPGESRSAQTSKQSNRGSFGWANRKIEIPEGWMAVGSKLMYSPSDILGTGCEGTVVYRGTFDGREVAVKRVVSEFVKFAHREADLLRESDTHPHVIRYFCMESDSQFRYLALELCIASLNDYVEQKEVQQNVTIALRDIMKQATDGLAHLHASKIVHRDMKPQNVLITMASQRGEMRAVISDFGLCKRVQPGKNSISRGIASGLAGTDGWIAPEVLISASTSYPVDIFSLGCIFYYVLTSGTHPFGKSLHRQANIVNGEYTLNKLADLDDWSLADDLISSMLNVEPLHRLTADAVLNHPFFWTSEKRLAYFSDVSDRVEKEEDNSPVVRRIETDARIVVCGGWREKICDALKEDLRKFRTYKSFSVRDLLRAMRNKKHHYRELPEDVRQSLGDIPDQFLHYFTSRFPRLLLHVYKATEYCSGEAVFKRYYSDDVRARMYPIVEEEERVRKKIKEEMANEVWARAPKPVEQRTPLKLDKRNIKKKSNPNTD
As to B1, the binding result is given as “binds”.
